Our source for the binding values is article PMC6305323.

Chains of the proteins cited; added tags and fusions are not shown. Lines headed by an entry give the natural chain unless they say otherwise; changes in a name come on top.
UniProt A0A0P0X2F6: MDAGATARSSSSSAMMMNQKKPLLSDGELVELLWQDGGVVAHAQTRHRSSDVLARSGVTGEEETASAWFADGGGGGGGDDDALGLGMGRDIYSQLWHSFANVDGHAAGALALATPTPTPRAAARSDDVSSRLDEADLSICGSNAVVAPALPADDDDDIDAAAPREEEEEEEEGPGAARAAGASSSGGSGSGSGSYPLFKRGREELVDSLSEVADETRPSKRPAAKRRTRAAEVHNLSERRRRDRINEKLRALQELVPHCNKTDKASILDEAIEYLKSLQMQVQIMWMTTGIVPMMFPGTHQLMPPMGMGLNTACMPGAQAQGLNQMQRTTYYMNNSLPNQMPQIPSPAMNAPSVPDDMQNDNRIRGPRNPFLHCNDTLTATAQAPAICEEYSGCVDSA

These are yes or no findings as the source states them, for the method shown. In cells and extracts the contact can be indirect. A result given as binding can be weak or reduced; the word gives no strength. Tags and fused reporters may be left off the sequences shown.

The assay deals with T1, GFP-SLR1 (rice) (UniProt Q7G7J6).
T1 sequence: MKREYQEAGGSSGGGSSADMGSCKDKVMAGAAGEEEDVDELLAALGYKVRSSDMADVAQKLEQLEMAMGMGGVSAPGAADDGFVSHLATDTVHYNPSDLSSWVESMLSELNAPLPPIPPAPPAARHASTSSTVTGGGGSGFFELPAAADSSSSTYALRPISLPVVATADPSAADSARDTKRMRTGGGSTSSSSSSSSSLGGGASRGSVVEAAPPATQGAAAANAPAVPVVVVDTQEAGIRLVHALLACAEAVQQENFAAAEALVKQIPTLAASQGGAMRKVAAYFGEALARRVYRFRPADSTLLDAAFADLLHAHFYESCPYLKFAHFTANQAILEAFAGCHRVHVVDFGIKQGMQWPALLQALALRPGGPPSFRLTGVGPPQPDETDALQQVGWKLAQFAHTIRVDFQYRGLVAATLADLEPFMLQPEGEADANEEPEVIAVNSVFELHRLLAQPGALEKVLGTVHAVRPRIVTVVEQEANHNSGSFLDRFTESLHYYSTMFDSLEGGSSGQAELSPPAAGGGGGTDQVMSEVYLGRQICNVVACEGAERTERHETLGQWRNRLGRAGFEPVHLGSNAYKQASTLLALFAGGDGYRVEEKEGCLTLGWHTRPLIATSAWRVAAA
The assay is described as follows: co-IP; rice protoplasts co-transformed with 6xMyc- and GFP-tagged constructs, 10 h in the dark at 28°C; IP buffer 25 mM Tris-HCl pH 7.5, 150 mM NaCl, 0.5 % Triton X-100, 1 mM EDTA, 1 mM DTT; GFP or Myc antibody and Protein G agarose beads; western blot with the other antibody. On the technique in general: A western blot detects proteins with antibodies after separation by electrophoresis.

In the case of 6xMyc-OsPIL14 (from UniProt A0A0P0X2F6), the binding entry is reported as “binds”.
